From patent US7687504B2, “Pyrrolidine compounds” (National Health Research Institutes, priority 2004, dated 2010)
At least one read-out could not be matched to a standard name with certainty.

Chains of the proteins cited; added tags and fusions are not shown.
UniProt P27487, whole entry: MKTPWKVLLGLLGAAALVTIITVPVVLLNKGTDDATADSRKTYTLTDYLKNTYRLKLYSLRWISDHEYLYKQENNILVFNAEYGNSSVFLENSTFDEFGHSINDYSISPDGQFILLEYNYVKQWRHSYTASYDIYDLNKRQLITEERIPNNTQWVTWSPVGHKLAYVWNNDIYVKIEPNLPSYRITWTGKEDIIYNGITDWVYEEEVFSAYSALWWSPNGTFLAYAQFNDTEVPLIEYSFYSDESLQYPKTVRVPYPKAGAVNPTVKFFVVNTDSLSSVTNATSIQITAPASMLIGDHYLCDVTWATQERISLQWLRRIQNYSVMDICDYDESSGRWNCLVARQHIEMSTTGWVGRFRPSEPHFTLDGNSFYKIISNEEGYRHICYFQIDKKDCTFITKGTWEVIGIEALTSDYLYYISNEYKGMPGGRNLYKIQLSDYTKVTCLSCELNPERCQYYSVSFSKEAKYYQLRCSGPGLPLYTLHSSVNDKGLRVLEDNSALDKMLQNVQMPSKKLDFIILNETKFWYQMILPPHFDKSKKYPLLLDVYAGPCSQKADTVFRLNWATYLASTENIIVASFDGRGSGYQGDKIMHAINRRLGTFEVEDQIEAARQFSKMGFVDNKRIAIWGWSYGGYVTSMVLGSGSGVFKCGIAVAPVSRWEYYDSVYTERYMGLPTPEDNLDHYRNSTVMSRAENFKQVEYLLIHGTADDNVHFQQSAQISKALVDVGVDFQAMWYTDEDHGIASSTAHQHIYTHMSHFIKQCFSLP

Target: T1, purified human semen DPP-IV (Homo sapiens, UniProt P27487)
T1 construct: DPP-IV was purified from human semen; from tissue; host or cells: human semen (prostasomes and seminal plasma)
Assay: DPP-IV inhibition, IC50 determination with H-Gly-Pro-pNA substrate
Assay type: biochemical
Details: 37° C., 20 mM Tris-HCl (pH 8.0) or PBS, 500 uM H-Gly-Pro-pNA

## CC(C)(CC(=S)N1CCc2ccccc2C1)NCC(=O)N1CCCC1C#N (stereo not shown) [Compound 45, 1-{2-[3-(3,4-Dihydro-1H-isoquinolin-2-yl)-1,1-dimethyl-3-thioxo-propylamino]-acetyl}-pyrrolidine-2-carbonitrile]
  inhibitory activity against DPP-IV (IC50 determination): inhibited DPP-IV more effectively than the comparative compound
